The results in this text go back to patent US20220220212A1 (RESEARCH FOUNDATION FOR THE STATE UNIVERSITY OF NEW YORK, published 2022).

These are yes or no findings as the source states them, for the method shown. Some binding calls cover weakened binding; strength is not graded here.

The assay has as its target ECL2 domain of the CCR2 chemokine receptor. The assay can be described thus: phage display screening against ECL2.

B1: clone 11b (scFv)
scFv: DYKDDDDKLQPVLTQPSSASGTPGQRVTISCSGSSSNIGSNYVYWYQQLPGTAPKLLIYRNNQRPSGVPDRFSGSKSGTSASLAISGLQSEDEADYYCAAWDDTLIGPVFGGGTKLTVLGEGKSSGSGSESKASEVQLVESGGGLVKPGGSLTLSCAVSGFPFSDAWMNWVRQAPGKGLEWVGRIRSKAGGGTTDSAAPVKDRFTFSGDDSKNTVYVEMNSLKIEDTAVYYCTGEGYWGQGTLVTVSSVEAS
On to B1, for which the binding entry is reported as “binds”.
